From ChEMBL document CHEMBL3988442, “University of Dundee, Small-Polar-MMV Screening Library” (2021).

Protein sequences, listed by entry. Tags and fused reporters are not part of them.
UniProt E9BF75, entry or part of it: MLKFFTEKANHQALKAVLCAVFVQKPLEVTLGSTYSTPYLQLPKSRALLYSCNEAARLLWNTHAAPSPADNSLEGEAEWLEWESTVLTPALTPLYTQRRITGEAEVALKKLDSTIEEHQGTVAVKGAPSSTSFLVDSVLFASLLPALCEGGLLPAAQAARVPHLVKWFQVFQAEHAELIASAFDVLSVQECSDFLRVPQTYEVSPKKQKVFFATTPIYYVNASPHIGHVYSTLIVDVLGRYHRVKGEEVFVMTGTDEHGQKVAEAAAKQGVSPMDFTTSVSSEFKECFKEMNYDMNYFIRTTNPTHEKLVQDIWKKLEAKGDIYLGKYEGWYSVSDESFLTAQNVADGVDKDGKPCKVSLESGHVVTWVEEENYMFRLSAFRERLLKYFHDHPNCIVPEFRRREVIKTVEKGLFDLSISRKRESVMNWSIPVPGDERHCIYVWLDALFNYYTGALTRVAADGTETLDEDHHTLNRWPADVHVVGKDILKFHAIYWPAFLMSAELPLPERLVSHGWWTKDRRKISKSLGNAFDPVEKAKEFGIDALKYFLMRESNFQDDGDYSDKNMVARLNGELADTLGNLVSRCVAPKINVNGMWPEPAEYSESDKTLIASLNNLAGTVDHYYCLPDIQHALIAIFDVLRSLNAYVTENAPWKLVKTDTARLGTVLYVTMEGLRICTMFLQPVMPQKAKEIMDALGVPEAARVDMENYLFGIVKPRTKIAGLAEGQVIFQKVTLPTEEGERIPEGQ

Results are percentages, as filed.
The controls that fix the scale are not given in the record; negative values are as filed.
Compounds were drawn at random from those tested, without regard to their results.

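Primary screen of methionyl-tRNA synthetase; the read-out is not stated. Target: Methionyl-tRNA synthetase (putative), Leishmania donovani (UniProt E9BF75). The test concentration is not given. Values are per cent inhibition. Of about 68,000 compounds tested this way, about 24 (0.035%) reached 50% or more in at least one test.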

* CC(C)N(C)C(=O)C1CCN(Cc2cc3c(cc2O)CCC3)CC1 : 15.96%
* CN1CCCC2(CCN(c3cc(C(F)(F)F)nc(N(C)C)n3)C2)C1=O (centres undefined) : 8.078%
* Cn1nc(C(=O)NCc2cccnc2)c2c1CCS(=O)(=O)C2 : -23.87%
* CC(C)(C)c1cc(=O)n2c(n1)SCC(C(=O)NCc1cccs1)C2 (centres undefined) : 6.233%
* CNc1ncc(CN(C)Cc2cc(O)c3cccc(Cl)c3n2)cn1 : 19.93%
* CS(=O)(=O)c1nnc(NC(=O)CCc2cccs2)[nH]1 : 6.983%
* Cc1ccc(C(=O)NCc2cc(F)ccc2N2CCCN(C)CC2)o1 : 13.01%
* CCNC(=O)CNC(=O)c1nc(C2CC2)n(-c2ccccc2Cl)n1 : 8.086%
* CCOC(=O)Cn1c(=O)nc2n1C(=O)N(c1ccccc1)C2 : 8.257%
* CC(C)C(=O)NC1CCCN(C(=O)c2ccc(O)c(Cl)c2)C1 (centres undefined) : 23.93%
* O=C1CO[C@H]2CN(S(=O)(=O)c3ccccc3)C[C@H]2N1Cc1ccccc1 : 16.48%
* Cc1nc(C2CCCN(C(=O)c3cc(-c4ccccc4)[nH]n3)C2)no1 (centres undefined) : 12.05%
* COc1ccc(OC)c(CNCCc2cc(F)cc3c2OCOC3)c1 : 14.16%
* COC(=O)C(C)(C)NC(=O)c1cnc(C(C)(C)C)s1 : 17.73%
* O=C(CNC1CCc2ncnn2C1)N(Cc1cccs1)C1CC1 (centres undefined) : 11.14%
* Cc1nc(CN2CCC(N(C)Cc3nnc(C4CC4)n3C)C2)oc1C (centres undefined) : 11.67%
* COc1ccc(F)cc1S(=O)(=O)N1CCC(OC)CC1 : 12.95%
* Cn1nc(C2CNCCO2)cc1CCOc1ccc(Cl)cc1 (centres undefined) : 3.191%
* Cc1nc(CNCc2ccc(N3CCC(CO)CC3)nc2)cs1 : 10.88%
* O=C(CCn1c(C(F)(F)F)cc2cccnc21)N1CCC(O)CC1 : 20.58%
* Cc1cnn(CCNCc2csc(C)n2)c1 : 3.902%
* CC(C)n1cnc2c1C(C(=O)N(C)C)N(Cc1ccccc1)CC2 (centres undefined) : 14.81%
* COc1cccc(OC2CN(C(=O)CCn3cnc4ccccc43)C2)c1 : 6.529%
* COCC(=O)N[C@H](C)c1c(-c2ccc(Cl)cc2)noc1C(=O)O : 16.48%
* Cc1noc(-c2ccnc(N3CCC(CN4CCOCC4)CC3)c2)n1 : 8.397%
* NC(=O)C1CN(Cc2c[nH]cn2)CCN(C2CCOCC2)C1 (centres undefined) : 12.67%
* COCCCN1C(=O)CC(N2CCN(c3ccc(F)cc3)CC2)C1=O (centres undefined) : 5.099%
* COCCN1CCN(Cc2cnc(C3(C)CCCCO3)nc2)CC1 (centres undefined) : 9.884%
* Cc1cnc(C(=O)N2CCN3C[C@H](OCc4cccnc4)C[C@H]3C2)cn1 : 11.94%
* CCc1noc(C(C)N(C)CC(=O)Nc2ccc(C)cc2)n1 (centres undefined) : 8.374%
* O=C(NC[C@H]1CC[C@H](c2ccnc3ncnn32)CC1)C1CC1 : 2.1%
* O=C(Nc1ccccc1)C1=CC2(CCNCC2)c2ccccc21 : 7.071%
* Cc1noc(C)c1CN(C)CCC(=O)N1CCc2sccc2C1 : 11.89%
* Cn1ccc(C(=O)N2CCCCC23CC(=O)N(Cc2ccccc2)C3)n1 (centres undefined) : 12.22%
* CS(=O)(=O)c1ccc(O[C@H]2COCCN(C(=O)c3ccno3)C2)cc1 : 9.153%
* CNS(=O)(=O)c1ccc(C(=O)N2CCCC2c2ccccc2)o1 (centres undefined) : 14.96%
* CC(C)N1CCC(c2cc(C(F)(F)F)n3ccnc3n2)CC1 : 2.588%
* CCc1nc2n(n1)CC(NCCC(=O)Nc1cc(C)on1)CC2 (centres undefined) : 15.64%
* CC(NCc1ccc(Cl)o1)c1nnc2n1CCCC2 (centres undefined) : 2.857%
* CN1CCc2ncc(CNc3cc(N(C)C)ncn3)n2CC1 : 13.77%
* CC(C)(C)n1ncc2c(=O)[nH]c(N3CCN(CC(F)F)CC3)nc21 : 11.91%
* CCC(=O)NC1CCN(c2cccc(CC)c2)CC1 : 9.028%
* CCCC(=O)N1CCC(Cc2ccccc2-c2ccccc2)(C(N)=O)C1 (centres undefined) : 18.12%
* O[C@H]1[C@H](n2cc(-c3cccnc3)nn2)c2ccccc2C12CCNCC2 : 13.27%
* CSCC(=O)N(C)Cc1cnn(-c2ccc(F)cc2)c1 : -7.379%
* Cc1cc(C)c(-n2cc(CCO)cn2)cc1C : 5.625%
* CCOCCNC(=O)c1ccc(OC)cc1I : 10.31%
* Cc1cccc(-c2noc(CN3CCOC(Cn4cccn4)C3)n2)c1 (centres undefined) : 15.85%
* Cn1cc(CN2CCc3onc(COCC4CC4)c3C2)cn1 : 6.628%
* CCC(CNC(=O)NC1CCN(C)CC1)Oc1ccccc1Cl (centres undefined) : 8.741%
* Cc1cccc(OCCNC(=O)CN2CCCC2Cn2cncn2)c1 (centres undefined) : 19.83%
* CN1CCc2onc(Cn3cccc3)c2C1 : 20.44%
* Cc1nc(C2(NC(=O)NCc3cc(C#N)ccc3F)CCCC2)no1 : 13.83%
* CC(C)N(C)CC(=O)N(C)Cc1nc(C(F)(F)F)cs1 : 2.419%

Some entries from above, unchanged:

{"structure": "CNS(=O)(=O)c1ccc(C(=O)N2CCCC2c2ccccc2)o1", "stereo": "centres undefined", "Inhibition": 14.96}
{"structure": "COc1ccc(OC)c(CNCCc2cc(F)cc3c2OCOC3)c1", "Inhibition": 14.16}
{"structure": "CCc1noc(C(C)N(C)CC(=O)Nc2ccc(C)cc2)n1", "stereo": "centres undefined", "Inhibition": 8.374}
{"structure": "COCCN1CCN(Cc2cnc(C3(C)CCCCO3)nc2)CC1", "stereo": "centres undefined", "Inhibition": 9.884}
{"structure": "CS(=O)(=O)c1ccc(O[C@H]2COCCN(C(=O)c3ccno3)C2)cc1", "Inhibition": 9.153}
{"structure": "COCCCN1C(=O)CC(N2CCN(c3ccc(F)cc3)CC2)C1=O", "stereo": "centres undefined", "Inhibition": 5.099}
{"structure": "CC(C)n1cnc2c1C(C(=O)N(C)C)N(Cc1ccccc1)CC2", "stereo": "centres undefined", "Inhibition": 14.81}